A short description of this data set: general procedure: Boc solid-phase peptide synthesis; Boc-Arg(Tos)-OCH2-Pam resin; HBTU (in situ neutralization). The conditions noted are these: whole synthesis, scale 0.12 mmol.

Some peptides are written in HELM: one residue between dots, names in brackets for other building blocks, links after the first $.

The values below come from patent publication US6495314B1 (The Scripps Research Institute, priority 1995, dated 2002).

The substance “PEPTIDE1{A.E.Y.V.R.A.L.F.D.F.N.G.N.D.E.E.D.L.P.F.K.K.G.D.I.L.R.I.R.D.K.P.E.E.Q.W.W.N.A.E.D.S.E.G.K.R.G.M.I.P.V.P.Y.V.E.K.Y.R}$$$$V2.0” registered a crude mass of 195 mg. The isolated yield (calculated from the original loading of the resin) is listed as 23%.
